# Values of other authors as cited in patent US20130272974A1, “Hydroxytyrosol Product, Method of Making, and Uses Thereof” (priority 2012, published 2013).
# For at least one compound, name, drawing or mass did not settle the structure.
# System: HIV virus
# Settings: blocking the HIV virus from entry into host cells
structure (smiles),measurement,value
"OCCc1ccc(O)c(O)c1 [Hydroxytyrosol, 3,4-dihydroxyphenylethanol]",anti-HIV activity,shown anti-HIV activity
